Drawing on publication doi:10.1101/2020.01.16.909523 (bioRxiv, 2020), this text covers binding for 2 molecules.

These are yes or no findings as the source states them, for the method shown. Binding seen in cells or lysates may run through a third protein. Some binding calls cover weakened binding; strength is not graded here. Where a sequence is shown, tags or fusion partners need not be part of it.

This test concerns the target PE5mt-PPE4mt heterodimer (His6 tag on PE5mt) (Mycobacterium tuberculosis) (UniProt L7N695). Briefly: pull-down.

For EspG3mt (from UniProt P9WJC7 1-295), the binding result is recorded as “binds”.

B1: EspG3 from Mycolicibacterium smegmatis (protein, UniProt A0QQ45)
chain: MGPNAVELTTDQAWCLADVLGAGSYPWVLAITPPYSDHSQRSAFLAAQSAELTRMGVVNSAGAVDPRVAQWITTVCRATQWLDLRFVSGPGDLLRGMVARRSEETVVALRNAQLVTFTAMDIGHQHALVPVLTAGLSGRKPARFDDFALPAAAGARADEQIRNGAPLAEVLEFLGVPPSARPLVESVFDGRRTYVEIVAGEHRDGHRVTTEVGVSIIDTPHGRILVHPTKAFDGEWISTFTPGSADAIAMAVERLTASLPSGSWFPDQPLTRDFDEDAATHREPVLQRRTQKA
Turning to B1, the binding result is given as “binds”.
